Experimental data: PubChem BioAssay AID504764 (Drosophila RNAi Screening Center, 2011)
In all, the deposit lists about 22,000 reagents; this is an unselected part of those that have a named target and a result. In the full data, 403 (1.9%) were called active. 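Unnormalised raw counts per well; ratio z-scores behind the hit calls and whether each hit raises or lowers signal are not deposited.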 The record does not give: the amount of reagent.

Screen: 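Genes whose knock-down alters Notch-dependent transcription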 (primary screen)
Cell system: Drosophila Kc167 cells
Knock-down reagent: long dsRNA against Drosophila genes
Timing: about 5 days (4 days dsRNA, then 24 h after transfection)
Conditions: transfection of constitutively active membrane-tethered Notch lacking the extracellular domain, read 24 h later
Measurement: 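Firefly luciferase from an E(spl)m3 reporter with active Notch, plus control-promoter and uninduced reporter wells for normalisation; unnormalised counts, duplicate wells a and b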
Direction: induced reporter light, run 1, well a and induced reporter light, run 1, well b: higher = more light from the Notch target reporter with active Notch; control promoter light, run 1, well a and control promoter light, run 1, well b: higher = more light from the viral control promoter (cell number, transfection, viability); uninduced reporter light, run 1, well a: higher = more light from the Notch target reporter without active Notch
Rule for the call: 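Hit if the duplicate-averaged log2 ratio of induced to control-promoter light gives a plate-wise z beyond ±2, or induced to uninduced beyond ±1.8; weak-control or discordant-duplicate wells dropped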
Meaning of the calls: active = modifier hit (raised or lowered Notch signal); inactive = not a hit

CG14736 showed induced reporter light, run 1, well a = 88600; induced reporter light, run 1, well b = 1.08e5; control promoter light, run 1, well a = 1.00e5; control promoter light, run 1, well b = 76005; uninduced reporter light, run 1, well a = 14762; inactive.
Silencing of Or22c resulted in: induced reporter light, run 1, well a = 1.28e5; induced reporter light, run 1, well b = 1.21e5; control promoter light, run 1, well a = 1.20e5; control promoter light, run 1, well b = 68430; uninduced reporter light, run 1, well a = 9065; inactive.
For sgll the deposit lists induced reporter light, run 1, well a = 71445; induced reporter light, run 1, well b = 87930; control promoter light, run 1, well a = 79655; control promoter light, run 1, well b = 61735; uninduced reporter light, run 1, well a = 6435; inactive.
Silencing of bsd gave: induced reporter light, run 1, well a = 69565; induced reporter light, run 1, well b = 86185; control promoter light, run 1, well a = 89870; control promoter light, run 1, well b = 1.19e5; uninduced reporter light, run 1, well a = 7165; inactive.
After knock-down of corolla, the screen gave induced reporter light, run 1, well a = 1.24e5; induced reporter light, run 1, well b = 1.15e5; control promoter light, run 1, well a = 91240; control promoter light, run 1, well b = 56575; uninduced reporter light, run 1, well a = 9910; inactive.
Depletion of PIG-Wb resulted in: induced reporter light, run 1, well a = 1.42e5; induced reporter light, run 1, well b = 1.16e5; control promoter light, run 1, well a = 2.23e5; control promoter light, run 1, well b = 1.53e5; uninduced reporter light, run 1, well a = 5442; inactive.
For CG31636 the deposit lists induced reporter light, run 1, well a = 68290; induced reporter light, run 1, well b = 54680; control promoter light, run 1, well a = 70125; control promoter light, run 1, well b = 57870; uninduced reporter light, run 1, well a = 3650; inactive.
Against xit the deposit lists induced reporter light, run 1, well a = 1.48e5; induced reporter light, run 1, well b = 1.46e5; control promoter light, run 1, well a = 1.57e5; control promoter light, run 1, well b = 1.48e5; uninduced reporter light, run 1, well a = 10395; inactive.
Against Obp83ef, the values are induced reporter light, run 1, well a = 69460; induced reporter light, run 1, well b = 62720; control promoter light, run 1, well a = 66200; control promoter light, run 1, well b = 51535; uninduced reporter light, run 1, well a = 7240; inactive.
For CG11373 the deposit lists induced reporter light, run 1, well a = 1.16e5; induced reporter light, run 1, well b = 1.17e5; control promoter light, run 1, well a = 1.01e5; control promoter light, run 1, well b = 80940; uninduced reporter light, run 1, well a = 7455; inactive.
Knock-down of spi came out at: induced reporter light, run 1, well a = 72770; induced reporter light, run 1, well b = 47580; control promoter light, run 1, well a = 55340; control promoter light, run 1, well b = 56335; uninduced reporter light, run 1, well a = 3155; inactive.
For CG42531, the values are induced reporter light, run 1, well a = 1.88e5; induced reporter light, run 1, well b = 2.18e5; control promoter light, run 1, well a = 3.18e5; control promoter light, run 1, well b = 3.20e5; uninduced reporter light, run 1, well a = 15538; inactive.
Knock-down of CG18870 gave: induced reporter light, run 1, well a = 52595; induced reporter light, run 1, well b = 34075; control promoter light, run 1, well a = 33575; control promoter light, run 1, well b = 48985; uninduced reporter light, run 1, well a = 3495; inactive.
For Alg11, the values are induced reporter light, run 1, well a = 1.75e5; induced reporter light, run 1, well b = 1.48e5; control promoter light, run 1, well a = 1.12e5; control promoter light, run 1, well b = 1.56e5; uninduced reporter light, run 1, well a = 9935; inactive.
Against CG32813, the entry reads induced reporter light, run 1, well a = 1.25e5; induced reporter light, run 1, well b = 1.21e5; control promoter light, run 1, well a = 2.28e5; control promoter light, run 1, well b = 2.06e5; uninduced reporter light, run 1, well a = 9610; inactive.
Knock-down of Ccdc85 gave: induced reporter light, run 1, well a = 48535; induced reporter light, run 1, well b = 38090; control promoter light, run 1, well a = 20015; control promoter light, run 1, well b = 21210; uninduced reporter light, run 1, well a = 7950; inactive.
After knock-down of spel1, the screen gave induced reporter light, run 1, well a = 1.57e5; induced reporter light, run 1, well b = 1.94e5; control promoter light, run 1, well a = 1.77e5; control promoter light, run 1, well b = 1.82e5; uninduced reporter light, run 1, well a = 16275; inactive.
Silencing of Lsm11 came out at: induced reporter light, run 1, well a = 2.13e5; induced reporter light, run 1, well b = 1.65e5; control promoter light, run 1, well a = 2.03e5; control promoter light, run 1, well b = 1.95e5; uninduced reporter light, run 1, well a = 16890; inactive.

3 entries from above, arranged by “control promoter light, run 1, well a”, ascending.
sgll: induced reporter light, run 1, well a = 71445; induced reporter light, run 1, well b = 87930; control promoter light, run 1, well a = 79655; control promoter light, run 1, well b = 61735; uninduced reporter light, run 1, well a = 6435; Call = inactive
bsd: induced reporter light, run 1, well a = 69565; induced reporter light, run 1, well b = 86185; control promoter light, run 1, well a = 89870; control promoter light, run 1, well b = 1.19e5; uninduced reporter light, run 1, well a = 7165; Call = inactive
Or22c: induced reporter light, run 1, well a = 1.28e5; induced reporter light, run 1, well b = 1.21e5; control promoter light, run 1, well a = 1.20e5; control promoter light, run 1, well b = 68430; uninduced reporter light, run 1, well a = 9065; Call = inactive
